Test results taken from publication doi:10.1101/2023.08.29.555364.
Where a chain is given by its changes, count along the chain named. No constants are given. Whether binding was seen depends on the method and setting. Binding seen in cells or lysates may run through a third protein. Some entries that bind do so weakly or less than the wild type. Tags and fused reporters may be left off the sequences shown. Each block holds one molecule with its values, some of them ahead of it.

Amino acid sequences for entries named in this document (tags omitted). A change or cut given only in a name is not applied to a line headed by its entry. Residues count along the entry.
UniProt P37173, 23-567: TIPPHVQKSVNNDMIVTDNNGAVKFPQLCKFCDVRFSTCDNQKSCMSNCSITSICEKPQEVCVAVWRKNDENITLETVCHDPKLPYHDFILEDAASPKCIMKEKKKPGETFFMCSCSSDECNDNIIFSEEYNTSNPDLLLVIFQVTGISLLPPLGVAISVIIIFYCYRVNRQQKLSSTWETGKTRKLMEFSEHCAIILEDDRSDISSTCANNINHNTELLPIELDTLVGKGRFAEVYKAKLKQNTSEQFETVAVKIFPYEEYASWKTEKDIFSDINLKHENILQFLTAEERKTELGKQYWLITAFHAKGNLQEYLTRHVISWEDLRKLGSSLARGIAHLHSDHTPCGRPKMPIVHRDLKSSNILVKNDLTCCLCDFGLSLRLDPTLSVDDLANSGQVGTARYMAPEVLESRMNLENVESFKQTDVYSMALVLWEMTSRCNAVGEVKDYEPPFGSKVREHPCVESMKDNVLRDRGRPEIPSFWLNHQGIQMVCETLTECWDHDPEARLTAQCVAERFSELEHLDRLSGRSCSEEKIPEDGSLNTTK
UniProt P01137, 279-390: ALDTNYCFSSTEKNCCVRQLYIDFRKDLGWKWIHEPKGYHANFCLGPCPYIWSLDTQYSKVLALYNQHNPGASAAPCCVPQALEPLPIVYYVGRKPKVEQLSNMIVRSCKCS

Assays:
[1] = target: T1, BG lacking GAG chains (BG-ΔGAG), double Ser-Ala mutant S534A/S545A of HA-tagged human BG (human) (UniProt Q03167); assay: co-IP
T1 sequence: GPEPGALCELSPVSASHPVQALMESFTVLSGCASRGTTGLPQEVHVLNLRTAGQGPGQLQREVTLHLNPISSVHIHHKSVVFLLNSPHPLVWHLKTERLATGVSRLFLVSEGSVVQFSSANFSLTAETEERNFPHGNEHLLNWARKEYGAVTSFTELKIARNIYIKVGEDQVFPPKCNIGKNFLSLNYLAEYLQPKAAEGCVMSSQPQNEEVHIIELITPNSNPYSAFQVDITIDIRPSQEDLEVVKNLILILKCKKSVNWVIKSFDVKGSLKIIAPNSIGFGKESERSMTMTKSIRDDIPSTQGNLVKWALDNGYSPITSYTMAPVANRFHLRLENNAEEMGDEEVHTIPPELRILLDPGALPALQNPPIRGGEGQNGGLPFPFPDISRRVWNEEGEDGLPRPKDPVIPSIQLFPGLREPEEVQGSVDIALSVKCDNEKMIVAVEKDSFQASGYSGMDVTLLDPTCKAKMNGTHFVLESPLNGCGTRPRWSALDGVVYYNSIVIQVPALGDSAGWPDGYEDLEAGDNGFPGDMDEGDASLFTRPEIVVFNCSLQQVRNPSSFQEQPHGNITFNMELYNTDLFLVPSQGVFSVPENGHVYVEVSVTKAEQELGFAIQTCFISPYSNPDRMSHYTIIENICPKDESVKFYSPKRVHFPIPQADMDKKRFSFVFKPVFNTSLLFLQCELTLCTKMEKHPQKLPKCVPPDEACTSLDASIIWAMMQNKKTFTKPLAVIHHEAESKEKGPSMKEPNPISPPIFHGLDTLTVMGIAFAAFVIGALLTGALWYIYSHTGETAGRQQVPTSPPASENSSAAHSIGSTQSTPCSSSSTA

[2] = target: T2, Ascites-derived soluble betaglycan (sol-BG) of ovarian cancer patients (human (endogenous in patient ascites fluid)) (UniProt Q03167); assay: radioligand binding + cross-linking
T2 sequence (chain, glycosaminoglycan modified (both HS and CS chains)): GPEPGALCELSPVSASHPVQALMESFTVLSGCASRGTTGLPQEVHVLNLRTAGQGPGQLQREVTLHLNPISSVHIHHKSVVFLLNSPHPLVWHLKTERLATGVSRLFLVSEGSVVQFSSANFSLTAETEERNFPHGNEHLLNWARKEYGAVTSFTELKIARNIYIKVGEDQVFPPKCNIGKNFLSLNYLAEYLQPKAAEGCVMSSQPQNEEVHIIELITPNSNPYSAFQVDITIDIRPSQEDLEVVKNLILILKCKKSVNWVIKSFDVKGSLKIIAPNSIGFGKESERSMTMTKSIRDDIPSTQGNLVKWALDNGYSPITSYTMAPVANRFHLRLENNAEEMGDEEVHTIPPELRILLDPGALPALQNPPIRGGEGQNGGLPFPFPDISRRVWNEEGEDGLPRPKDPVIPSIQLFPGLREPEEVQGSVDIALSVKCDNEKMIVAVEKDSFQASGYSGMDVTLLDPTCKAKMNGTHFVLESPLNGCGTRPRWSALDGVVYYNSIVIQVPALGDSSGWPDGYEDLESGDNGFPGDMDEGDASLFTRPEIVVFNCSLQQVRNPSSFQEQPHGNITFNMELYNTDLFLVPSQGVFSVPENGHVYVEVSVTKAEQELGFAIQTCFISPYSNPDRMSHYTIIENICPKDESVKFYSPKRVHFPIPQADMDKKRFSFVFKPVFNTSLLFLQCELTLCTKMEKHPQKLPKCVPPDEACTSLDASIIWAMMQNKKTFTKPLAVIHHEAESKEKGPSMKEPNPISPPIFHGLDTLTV

[3] = target: T3, BG S545A (HS-BG), single GAG attachment site mutant of HA-tagged human BG (human) (UniProt Q03167); assay: radioligand binding + cross-linking
T3 sequence (chain, heparan sulfate glycosaminoglycan chains (HS only; called HS-BG)): T1 sequence with A514S

[4] = target: T1, BG lacking GAG chains (BG-ΔGAG), double Ser-Ala mutant S534A/S545A of HA-tagged human BG (human); assay: radioligand binding + cross-linking
[5] = target: T4, Shed betaglycan (shed-BG) from FL-BG expressing cells (human) (UniProt Q03167); assay: radioligand binding + cross-linking
T4 sequence (chain, glycosaminoglycan chains (glycosylated forms ranging from 90kDa to 250kDa)): T2 sequence (chain, glycosaminoglycan modified (both HS and CS chains))

[6] = target: T5, Shed betaglycan from ΔGAG-BG expressing cells (human) (UniProt Q03167); assay: radioligand binding + cross-linking
T5 sequence: T2 sequence (chain, glycosaminoglycan modified (both HS and CS chains)) with S514A, S525A

- binding [1]: binds
Molecule: TGF-βRII (from UniProt P37173 23-567) (receptor)

- binding [2]: binds
- binding [3]: binds
- binding [4]: binds
- binding [5]: binds
- binding [6]: binds
Molecule: [125I]-Bolton-Hunter labeled Transforming Growth Factor-β1 (Human, Recombinant) (from UniProt P01137 279-390) (ligand)

- binding [1]: binds
B1: TGF-βRI (receptor, UniProt P36897 34-503)
chain: LQCFCHLCTKDNFTCVTDGLCFVSVTETTDKVIHNSMCIAEIDLIPRDRPFVCAPSSKTGSVTTTYCCNQDHCNKIELPTTVKSSPGLGPVELAAVIAGPVCFVCISLMLMVYICHNRTVIHHRVPNEEDPSLDRPFISEGTTLKDLIYDMTTSGSGSGLPLLVQRTIARTIVLQESIGKGRFGEVWRGKWRGEEVAVKIFSSREERSWFREAEIYQTVMLRHENILGFIAADNKDNGTWTQLWLVSDYHEHGSLFDYLNRYTVTVEGMIKLALSTASGLAHLHMEIVGTQGKPAIAHRDLKSKNILVKKNGTCCIADLGLAVRHDSATDTIDIAPNHRVGTKRYMAPEVLDDSINMKHFESFKRADIYAMGLVFWEIARRCSIGGIHEDYQLPYYDLVPSDPSVEEMRKVVCEQKLRPNIPNRWQSCEALRVMAKIMRECWYANGAARLTALRIKKTLSQLSQQEGIKM
